Values of other authors as cited in patent US20030229044A1, “Use of statins and other immunomodulatory agents in the treatment of autoimmune disease” (priority 2002, published 2003).
For at least one compound, name, drawing or mass did not settle the structure.

System: cardiac transplant patients
Conditions: cited from earlier work

**Q.** For `CC[C@H](C)C(=O)O[C@H]1C[C@H](O)C=C2C=C[C@H](C)[C@H](CC[C@@H](O)C[C@@H](O)CC(=O)O)[C@H]21` [pravastatin], which “hemodynamically significant rejection episodes” value is on record?
**A.** reduction in hemodynamically significant rejection episodes

**Q.** And the survival?
**A.** increased survival
